From PubChem BioAssay AID504594 (Broad Institute, 2011)
Values joined by “and” are separate entries in the source; they are usually repeats but may differ in a detail not shown here. Equal values may be shown once. Out of some 2,000 compounds screened, fewer than 10 were called active.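 The calls were made as follows: active = growth inhibition of at least 75% in every replicate, which also brings the mean inhibition to 75% or more; inconclusive = mean inhibition 75% or more but some replicate under 75%; inactive = the rest.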 The list shows a part of the results.

assay: growth inhibition of PfHsp90-dependent yeast, primary screen, antimalarial PfHsp90 inhibitor project, S. cerevisiae, BacTiter-Glo luminescence (AID 504594);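 also: 0% = DMSO neutral control wells and 100% = 20 µM radicicol control wells; higher value means stronger growth inhibition because the sign is flipped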; details: S. cerevisiae expressing PfHsp90, BacTiter-Glo growth, 48 h; at 9.4 µM; active compounds read high

SMILES | growth inhibition
CCc1c(C(C)=O)oc2ccc3c(C)cc(=O)oc3c12 | inactive: -7.18%
O=C1c2ccccc2N2C(=O)c3ccccc3C2N1Cc1ccco1 (stereo unspecified) | inactive: -6.35%
CC12CN3CC(C)(CN(C1)C3c1ccc([N+](=O)[O-])o1)C2 (stereo unspecified) | inactive: -3.86%
COc1ccc(CCN2C(=O)CSC2c2ccc(OC)c(OC)c2)cc1OC (stereo unspecified) | inactive: 2.57%
Clc1ccc2c(c1)CCc1cccnc1C2=C1CCNCC1 | inactive: 6.97%
Cc1csc(N)n1 | inactive: -7.1%
COc1ccc(O)c(C2=Nc3ccccc3N=C(c3ccccc3)C2)c1 | inactive: -7.9%
CCCNC(=O)NS(=O)(=O)c1ccc(Cl)cc1 | inactive: 19.8%
CC(=O)O[C@]1(C(C)=O)CC[C@H]2[C@@H]3C=C(Cl)C4=CC(=O)CC[C@]4(C)[C@H]3CC[C@@]21C | inactive: -11.2%
NC(N)=NC(N)=Nc1ccc2ccccc2c1 | inactive: -11.6%
Cc1cc(C(=O)NC(CC(C)C)C(=O)O)cc(C)c1[N+](=O)[O-] (stereo unspecified) | inactive: -5.58%
CC(C)CN(C)Cc1c(C(=O)N2CCc3ccccc3C2)nc2ccc(Cl)cn12 | inactive: -1.22%
COc1ccc(C(=O)N2c3cc4c(cc3C(C)=CC2(C)C)OCO4)cc1 | inactive: 10.9%
COc1ccc(CCn2c(C)cc3c(c2=O)C(c2ccncc2)C(C#N)=C(N)O3)cc1OC (stereo unspecified) | inactive: -3.67%
Cc1ncc(CN2CCC(CO)(CCc3ccccc3)CC2)s1 | inactive: 17.3%
O=C(/C=C/c1ccccc1)NCC1(c2ccccc2)CCOCC1 | inactive: -5.5%
CC1(C)C2CCC1(C)C(OCC[N+](C)(C)CC(=O)OC1CCCCC1)C2 (stereo unspecified) | inactive: -1.87%
CCOc1ccc(N2C(=O)CNC2=S)cc1 | inactive: -1.5%
Nc1nc2c(ncn2COC(CO)CO)c(=O)[nH]1 | inactive: 12.1%
CC(=O)OC[C@H]1O[C@@H](Sc2cccc3cccnc23)[C@H](OC(C)=O)[C@@H](OC(C)=O)[C@H]1OC(C)=O | inactive: 3.67%
CC(C)CCNC(=O)[C@H](CC(C)C)NC(=O)[C@H]1O[C@@H]1C(=O)O | inactive: -0.406%

Copied from above for reference:
SMILES | growth inhibition
O=C1c2ccccc2N2C(=O)c3ccccc3C2N1Cc1ccco1 (stereo unspecified) | inactive: -6.35%
CC12CN3CC(C)(CN(C1)C3c1ccc([N+](=O)[O-])o1)C2 (stereo unspecified) | inactive: -3.86%
COc1ccc(CCN2C(=O)CSC2c2ccc(OC)c(OC)c2)cc1OC (stereo unspecified) | inactive: 2.57%
Clc1ccc2c(c1)CCc1cccnc1C2=C1CCNCC1 | inactive: 6.97%
Cc1csc(N)n1 | inactive: -7.1%
COc1ccc(O)c(C2=Nc3ccccc3N=C(c3ccccc3)C2)c1 | inactive: -7.9%
CCCNC(=O)NS(=O)(=O)c1ccc(Cl)cc1 | inactive: 19.8%
CC(=O)O[C@]1(C(C)=O)CC[C@H]2[C@@H]3C=C(Cl)C4=CC(=O)CC[C@]4(C)[C@H]3CC[C@@]21C | inactive: -11.2%
NC(N)=NC(N)=Nc1ccc2ccccc2c1 | inactive: -11.6%
Cc1cc(C(=O)NC(CC(C)C)C(=O)O)cc(C)c1[N+](=O)[O-] (stereo unspecified) | inactive: -5.58%
CC(C)CN(C)Cc1c(C(=O)N2CCc3ccccc3C2)nc2ccc(Cl)cn12 | inactive: -1.22%
COc1ccc(C(=O)N2c3cc4c(cc3C(C)=CC2(C)C)OCO4)cc1 | inactive: 10.9%
COc1ccc(CCn2c(C)cc3c(c2=O)C(c2ccncc2)C(C#N)=C(N)O3)cc1OC (stereo unspecified) | inactive: -3.67%
Cc1ncc(CN2CCC(CO)(CCc3ccccc3)CC2)s1 | inactive: 17.3%
O=C(/C=C/c1ccccc1)NCC1(c2ccccc2)CCOCC1 | inactive: -5.5%
CC1(C)C2CCC1(C)C(OCC[N+](C)(C)CC(=O)OC1CCCCC1)C2 (stereo unspecified) | inactive: -1.87%
CCOc1ccc(N2C(=O)CNC2=S)cc1 | inactive: -1.5%
Nc1nc2c(ncn2COC(CO)CO)c(=O)[nH]1 | inactive: 12.1%

(further entries)

SMILES | growth inhibition
CNCCc1ccccn1 | inactive: -0.0227%
CC(C)CC(NC(=O)c1cccc(Cl)c1)C(=O)O (stereo unspecified) | inactive: 1.31%
CCOc1cc2c(cc1OCC)C(c1ccccc1)N(c1ccc(C(=O)O)cc1)C(=O)C2 (stereo unspecified) | inactive: 7.83%
O=C(CCN1CCC(c2ccccc2)C1)c1ccc2c(c1)OCCO2 (stereo unspecified) | inactive: 1.38%
c1ccc(Cn2nnc3cnccc32)cc1 | inactive: 11.3%
CCOc1ccc(C(=O)/C=C/c2cc(OC)c(OC)c(OC)c2)cc1 | inactive: 6.75%
COc1ccc(NC(=O)CC2C(=O)N(C)C(=S)N2Cc2ccncc2)cc1 (stereo unspecified) | inactive: 1.18%
Nc1ccn([C@@H]2O[C@H](CO)[C@@H](O)[C@@H]2O)c(=O)n1 | inactive: -3.61%
COc1cc2c(cc1OC)-c1cc(NC3CCCCCC3)nc(=O)n1CC2 | inactive: -3.84%
NC(N)=N/N=C/c1cccc(Cl)c1Cl | inactive: -4.6%
COc1ccc(CCN=CC2=C(O)CC(C)(C)CC2=O)cc1 | inactive: 1.7%
C=CCNC(=O)c1ccc(-c2cccc([N+](=O)[O-])c2)o1 | inactive: 0.359%
CC(C)CCC1(CCNC(C)c2cccs2)CCOC(C)(C)C1 (stereo unspecified) | inactive: 1.5%
COc1ccc(CC(=O)c2c(O)cc(O)cc2O)cc1OC | inactive: 9.31%
C[C@@H]1C[C@H]2[C@@H]3C[C@H](F)C4=CC(=O)C=C[C@]4(C)[C@@]3(F)[C@@H](O)C[C@]2(C)[C@@]1(O)C(=O)COC(=O)C(C)(C)C | inactive: 16.7%
O=C1C(=O)N2C(=C1C(=O)N1CCCCCC1)c1ccccc1CC21CCCC1 | inactive: -4.5%
O=C(CN1C(=O)c2ccccc2C1=O)Nc1cccc([N+](=O)[O-])c1 | inactive: 8.15%
O=c1[nH]cnc2c1ncn2[C@@H]1O[C@H](CO)[C@@H](O)[C@H]1O | inactive: -4.94%
CCc1nc2ccccc2n1Cc1ccc(OC)c(OC)c1 | inactive: 2.55%
O=C(O)C[C@@H](O)C(=O)O | inactive: -8.31%
O=c1ccc2ccccc2o1 | inactive: -13.2%

SMILES | growth inhibition
CC(=O)Oc1ccc2occ(/C=N/c3cc(=O)[nH]c(=S)[nH]3)c(=O)c2c1 | inactive: -8.02%
CC1(C)CC(CNCCC(c2ccc(F)cc2)c2ccco2)CCO1 (stereo unspecified) | inactive: -5.05%
CN(C)CCCN1c2ccccc2Sc2ccc(Cl)cc21 | inactive: 7.05% and inactive: 9.61%
COc1ccc(C(=O)Nc2cccc3cccnc23)cc1OC | inactive: 6.56%
Cc1nonc1CN(C)C(=O)c1ccc(OC2CCN(Cc3ccccn3)CC2)cc1 | inactive: 0.816%
COc1ccc(-c2onc(C)c2-c2ccc(C(=O)OC(C)C)o2)c(O)c1 | inactive: 7.86%
O=C(Oc1cccccc1=O)c1ccccc1 | inactive: 11%
O=C(O)CCCCCN1C(=O)C(=O)/C(=C(/O)c2ccccc2)C1c1ccccc1 (stereo unspecified) | inactive: -4.55%
Cn1c2c(c(=O)[nH]c1=O)C(c1ccc(O)cc1)C1=C(N2)c2ccccc2C1=O (stereo unspecified) | inactive: 1.24%
CN(C)CCOCCOc1ccc(Cl)cc1Br | inactive: 2.79%
O=c1c2ccccc2nc2n1-c1ccccc1CCC2 | inactive: -1.51%
CCc1ccc(CN(C)Cc2nc(Cc3ccccc3)no2)nc1 | inactive: -0.638%
CC(C)(C)c1ccc(C(O)CCCN2CCC(C(O)(c3ccccc3)c3ccccc3)CC2)cc1 (stereo unspecified) | inactive: 6.4%
CC(=O)Nc1nc(CCC(C)C)cc2c1c(=O)oc1ccccc12 | inactive: -1.94%
CC(COc1ccccc1)NC(C)C(O)c1ccc(O)cc1 (stereo unspecified) | inactive: 2.68%
COC1=C(N)C(=O)c2nc(-c3nc(C(=O)O)c(C)c(-c4ccc(OC)c(OC)c4O)c3N)ccc2C1=O | inactive: -7.96%
O=C(OCCN1CCOCC1)c1cccs1 | inactive: -2.82%
O=c1nc2sc3ccccc3n2c(=O)n1-c1ccc(Cl)cc1 | inactive: 7.78%
CCCC(CCC)C(=O)OC1C[C@H]2CC[C@@H](C1)[N+]2(C)C (stereo partly specified) | inactive: 2.61%
